This is an account of results in publication PMC7311471, “The iron–sulphur cluster in human DNA2 is required for all biochemical activities of DNA2”.

For at least one entry, the source does not settle the construct or the ends of the probe. The comparison behind a weaker result is the experiment's own reference, which may not be listed here. Tags and fusion partners may be left off the protein sequences shown.

In this series the target is T1, DNA2 WT (human) (UniProt P51530).
T1 sequence (looked up): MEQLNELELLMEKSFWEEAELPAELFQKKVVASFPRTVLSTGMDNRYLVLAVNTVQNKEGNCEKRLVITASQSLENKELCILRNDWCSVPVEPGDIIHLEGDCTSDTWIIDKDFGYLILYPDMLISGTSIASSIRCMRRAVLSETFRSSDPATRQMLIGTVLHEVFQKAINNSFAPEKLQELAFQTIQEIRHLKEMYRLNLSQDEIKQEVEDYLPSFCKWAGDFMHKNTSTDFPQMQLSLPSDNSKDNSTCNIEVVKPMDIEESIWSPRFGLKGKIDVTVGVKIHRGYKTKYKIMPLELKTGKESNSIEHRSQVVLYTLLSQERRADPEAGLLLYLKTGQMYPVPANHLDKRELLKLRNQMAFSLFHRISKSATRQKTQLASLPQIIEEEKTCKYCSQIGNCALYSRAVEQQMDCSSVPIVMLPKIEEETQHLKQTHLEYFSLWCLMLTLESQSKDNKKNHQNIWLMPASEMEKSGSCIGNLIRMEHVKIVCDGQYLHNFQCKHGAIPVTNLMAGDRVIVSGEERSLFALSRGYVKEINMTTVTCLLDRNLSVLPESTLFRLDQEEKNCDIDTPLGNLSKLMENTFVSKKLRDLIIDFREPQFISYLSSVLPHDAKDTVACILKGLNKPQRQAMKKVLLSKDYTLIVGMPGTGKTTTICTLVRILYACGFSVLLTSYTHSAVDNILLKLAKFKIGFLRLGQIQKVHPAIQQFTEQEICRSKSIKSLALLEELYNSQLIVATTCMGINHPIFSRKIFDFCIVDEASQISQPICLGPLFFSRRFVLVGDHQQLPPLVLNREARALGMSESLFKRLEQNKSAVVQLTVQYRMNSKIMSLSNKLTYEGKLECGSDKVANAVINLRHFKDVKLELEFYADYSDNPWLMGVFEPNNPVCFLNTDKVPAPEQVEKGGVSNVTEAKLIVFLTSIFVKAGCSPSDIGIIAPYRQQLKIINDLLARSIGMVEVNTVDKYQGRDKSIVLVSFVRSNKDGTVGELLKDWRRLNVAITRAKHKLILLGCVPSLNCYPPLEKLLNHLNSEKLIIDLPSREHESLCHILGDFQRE
Briefly: EMSA. The note with it: EMSA: 25 mM Tris-HCl pH 8.0, 0.1 mg/ml BSA, 5 mM EDTA, with or without 1 mM DTT, 30 min on ice, 4-5 nM FAM-DNA or 1 nM 32P-DNA, recombinant protein, residues 1-1060, protein details: His6 and FLAG, label: FAM (strand and end not shown). A general note: Mobility shift assays separate free from complexed probe on a gel.

In the case of “ATCGATAGTCGGATCCTCTAGACAGCTCCATGTAGCAAGGCACTGGTAGAATTCGGCAGCGT / GACGCTGCCGAATTCTACCAGTGCCTTGCTAGGACATCTTTGCCCACCTGCAGGTTCACCC / TGGGTGAACCTGCAGGTGGGCAAAGATGTCC [5' flap (FAM)]”, the binding result (50 nM protein pre-incubated with H2O2) is given as “binds more weakly” and the binding result (20 h air exposure without reducing agent (severely impaired)) is given as “binds more weakly”.
